Measured values from publication PMC11189624.
Positions count from the first letter of the chain named. No constants are given. Whether binding was seen depends on the method and setting. For some of these results: Binding calls can cover weak binding; strength is not graded here. Tags and fused reporters may be left off the sequences shown.

Key:
[1] = molecular target: T1, GST-Mlph-ABD (the GST-tagged ABD of Mlph, residues 401–590) (mouse) (UniProt Q91V27); assay: pull-down; GST pulldown of GST-Mlph-ABD and Flag-Mlph-EFBD in the presence of Flag-Myo5a-MTD; Western blot with anti-Flag; both purified
T1 sequence: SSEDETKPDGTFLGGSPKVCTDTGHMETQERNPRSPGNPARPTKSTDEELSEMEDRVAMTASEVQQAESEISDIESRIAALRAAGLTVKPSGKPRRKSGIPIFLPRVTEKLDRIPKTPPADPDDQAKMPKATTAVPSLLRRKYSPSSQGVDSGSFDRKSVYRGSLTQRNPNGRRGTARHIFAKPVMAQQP

[2] = molecular target: T2, GST-Mlph-ΔRBD (residues 148–590) (mouse) (UniProt Q91V27); assay: pull-down; GST pulldown: 2 uM GST-Mlph-ΔRBD on GSH-Sepharose with 4 uM Myo5a-MTD variants; Pulldown Buffer-II (5 mM Tris-HCl pH 7.5, 100 mM NaCl, 1 mM DTT, 1 mM EGTA), 4 °C, 2 hr; Western blot with anti-Flag; both purified
T2 sequence: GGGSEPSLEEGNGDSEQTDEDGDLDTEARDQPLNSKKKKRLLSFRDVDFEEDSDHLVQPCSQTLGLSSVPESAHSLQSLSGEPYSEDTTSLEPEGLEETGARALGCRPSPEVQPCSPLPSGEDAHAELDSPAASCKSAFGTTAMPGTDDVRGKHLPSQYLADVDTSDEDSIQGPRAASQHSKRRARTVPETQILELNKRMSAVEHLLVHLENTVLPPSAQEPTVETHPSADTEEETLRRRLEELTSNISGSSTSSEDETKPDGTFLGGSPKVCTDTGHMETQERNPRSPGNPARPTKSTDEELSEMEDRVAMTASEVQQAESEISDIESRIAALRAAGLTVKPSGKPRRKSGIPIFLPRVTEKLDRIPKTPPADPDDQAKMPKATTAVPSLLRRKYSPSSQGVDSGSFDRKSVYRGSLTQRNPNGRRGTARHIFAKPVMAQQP

[3] = molecular target: T1, GST-Mlph-ABD (the GST-tagged ABD of Mlph, residues 401–590) (mouse); assay: pull-down; GST pulldown: 2 uM GST-Mlph-ABD (or its variants) on GSH-Sepharose with 4 uM Flag-Myo5a-MTD or its truncations; Pulldown Buffer-I (5 mM Tris-HCl pH 7.5, 100 mM NaCl, 1 mM DTT, 1 mM EGTA, 0.1% NP-40), 4 °C, 2 hr; eluted by GSH, Western blot with anti-Flag; also run at 300 and 500 mM NaCl (less pulled down); both purified
[4] = molecular target: T3, GST-Mlph-ABD D447A (mouse) (UniProt Q91V27); assay: as above
T3 sequence: T1 sequence with D47A

[5] = molecular target: T4, GST-Mlph-ABD E449A (mouse) (UniProt Q91V27); assay: as above
T4 sequence: T1 sequence with E49A

[6] = molecular target: T5, GST-Mlph-ABD E452A (mouse) (UniProt Q91V27); assay: as above
T5 sequence: T1 sequence with E52A

[7] = molecular target: T6, GST-Mlph-ABD E454A (mouse) (UniProt Q91V27); assay: as above
T6 sequence: T1 sequence with E54A

[8] = molecular target: T7, GST-Mlph-ABD R562A (mouse) (UniProt Q91V27); assay: as above
T7 sequence: T1 sequence with R162A

[9] = molecular target: T8, GST-Mlph-ABD R568A (mouse) (UniProt Q91V27); assay: as above
T8 sequence: T1 sequence with R168A

In the case of “Flag-Myo5a-MTD (residues 1106–1467), bacterial-expressed (domain or fragment)”, the binding [1] was “binds”, the binding [2] was “binds” and the binding [3] was “binds”. The binding [4] was “binds”, the binding [5] was “no binding” and the binding [6] was “no binding”. For the same substance, the binding [7] was “binds”, the binding [8] was “binds” and the binding [9] was “binds”.
In the case of Flag-Myo5a-MTDΔF (domain or fragment), the binding [3] was “binds”.
In the case of Flag-Myo5a-MTDΔG (domain or fragment), the binding [3] was “no binding”.
For “Flag-Trx-Myo5a (1411–1467) (domain or fragment)”, the binding [3] was “binds”.
In the case of “Flag-Trx-Myo5a (1436–1467) (domain or fragment)”, the binding [3] was “binds weakly”.
